Test results published in patent US20170168078A1.
No constants are given. Whether binding was seen depends on the method and setting.

Sequences of proteins named here, by UniProt entry; tags and fusion partners are left off. Residues count along the entry.
UniProt P14207, residues 17-230: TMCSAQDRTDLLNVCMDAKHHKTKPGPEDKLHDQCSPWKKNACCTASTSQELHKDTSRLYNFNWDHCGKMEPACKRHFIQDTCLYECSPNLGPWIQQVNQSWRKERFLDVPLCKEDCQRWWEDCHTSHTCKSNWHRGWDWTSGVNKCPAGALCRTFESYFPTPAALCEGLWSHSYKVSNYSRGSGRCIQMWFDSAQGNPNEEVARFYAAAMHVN

Molecular target: human folate receptor beta (FRβ) expressed on CHO cells (human) (UniProt P14207)
Experiment: western blot of nonreduced whole cell lysates of CHO cells, SDS-PAGE

binding: no binding (tested: 1 µg/mL)
B1: Monoclonal antibody 19D4.B7 (antibody, mouse IgG2a, V domains shown)
VH: GAELVKPGASVKLSCTASGFNIKHPYMHWVKQRPDQGLEWIGRIDPANGNTKYDPKFQGKATITADTSSNTAYLQLSSLTSEDTAVYYCGREEVADYTMDYWGQGTSVTVSS
VL: PASLAVSLGQRATISCRASESVDTYGNNFIHWYQQKPGQPPKLLIYLASNLESGVPARFSGSGSRTDFTLTIDPVEADDAATYYCQQNNGDPWTFGGGTKLEIKR
